Source: article PMC5833788
No constants are given. Whether binding was seen depends on the method and setting. Binding seen in cells or lysates may run through a third protein. Some results given as binding are weak or reduced against the parent protein; the word gives no strength.

Target: T1, human nitrilase 1 (NIT1) (human (endogenous in CACO2)) (UniProt Q86X76)
T1 sequence: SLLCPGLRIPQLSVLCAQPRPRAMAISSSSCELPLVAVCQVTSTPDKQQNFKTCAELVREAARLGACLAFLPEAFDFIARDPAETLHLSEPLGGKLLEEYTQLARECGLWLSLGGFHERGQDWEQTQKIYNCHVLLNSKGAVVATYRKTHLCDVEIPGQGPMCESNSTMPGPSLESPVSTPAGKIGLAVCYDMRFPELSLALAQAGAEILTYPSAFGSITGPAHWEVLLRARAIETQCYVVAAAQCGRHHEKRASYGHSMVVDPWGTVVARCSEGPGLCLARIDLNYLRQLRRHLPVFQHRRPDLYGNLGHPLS
Test: co-IP; endogenous proteins in CACO2 cell lysate; NIT1, SARA or SMAD2/3 antibody added overnight at 4 °C, magnetic beads 6 h, washed six times in PBS, eluted in Laemmli buffer, western blotting

binding: binds
B1: ZFYVE9 (SARA/SMADIP) (protein, UniProt O95405 1-1425)
chain: MENYFQAEAYNLDKVLDEFEQNEDETVSSTLLDTKWNKILDPPSHRLSFNPTLASVNESAVSNESQPQLKVFSLAHSAPLTTEEEDHCANGQDCNLNPEIATMWIDENAVAEDQLIKRNYSWDDQCSAVEVGEKKCGNLACLPDEKNVLVVAVMHNCDKRTLQNDLQDCNNYNSQSLMDAFSCSLDNENRQTDQFSFSINESTEKDMNSEKQMDPLNRPKTEGRSVNHLCPTSSDSLASVCSPSQLKDDGSIGRDPSMSAITSLTVDSVISSQGTDGCPAVKKQENYIPDEDLTGKISSPRTDLGSPNSFSHMSEGILMKKEPAEESTTEESLRSGLPLLLKPDMPNGSGRNNDCERCSDCLVPNEVRADENEGYEHEETLGTTEFLNMTEHFSESQDMTNWKLTKLNEMNDSQVNEEKEKFLQISQPEDTNGDSGGQCVGLADAGLDLKGTCISESEECDFSTVIDTPAANYLSNGCDSYGMQDPGVSFVPKTLPSKEDSVTEEKEIEESKSECYSNIYEQRGNEATEGSGLLLNSTGDLMKKNYLHNFCSQVPSVLGQSSPKVVASLPSISVPFGGARPKQPSNLKLQIPKPLSDHLQNDFPANSGNNTKNKNDILGKAKLGENSATNVCSPSLGNISNVDTNGEHLESYEAEISTRPCLALAPDSPDNDLRAGQFGISARKPFTTLGEVAPVWVPDSQAPNCMKCEARFTFTKRRHHCRACGKVFCASCCSLKCKLLYMDRKEARVCVICHSVLMNAQAWENMMSASSQSPNPNNPAEYCSTIPPLQQAQASGALSSPPPTVMVPVGVLKHPGAEVAQPREQRRVWFADGILPNGEVADAAKLTMNGTSSAGTLAVSHDPVKPVTTSPLPAETDICLFSGSITQVGSPVGSAMNLIPEDGLPPILISTGVKGDYAVEEKPSQISVMQQLEDGGPDPLVFVLNANLLSMVKIVNYVNRKCWCFTTKGMHAVGQSEIVILLQCLPDEKCLPKDIFNHFVQLYRDALAGNVVSNLGHSFFSQSFLGSKEHGGFLYVTSTYQSLQDLVLPTPPYLFGILIQKWETPWAKVFPIRLMLRLGAEYRLYPCPLFSVRFRKPLFGETGHTIMNLLADFRNYQYTLPVVQGLVVDMEVRKTSIKIPSNRYNEMMKAMNKSNEHVLAGGACFNEKADSHLVCVQNDDGNYQTQAISIHNQPRKVTGASFFVFSGALKSSSGYLAKSSIVEDGVMVQITAENMDSLRQALREMKDFTITCGKADAEEPQEHIHIQWVDDDKNVSKGVVSPIDGKSMETITNVKIFHGSEYKANGKVIRWTEVFFLENDDQHNCLSDPADHSRLTEHVAKAFCLALCPHLKLLKEDGMTKLGLRVTLDSDQVGYQAGSNGQPLPSQYMNDLDSALVPVIHGGACQLSEGPVVMELIFYILENIV
